Results are given in words; binding and its absence hold for the method and conditions named. Some results given as binding are weak or reduced against the parent protein; the word gives no strength.
Legend:
[1] = molecular target: Porcine pancreas elastase (Sigma-Aldrich) (porcine) (UniProt P00772); assay: SDS-PAGE of the AAT-elastase complex, Coomassie stain; AAT (0.5 mg/mL, diluted 1 in 25) mixed with porcine pancreas elastase at a molar ratio of 2:1 (AAT:elastase), 30 min at room temperature, in some samples with 10 ng/mL LPS and 12 µg/mL spike; stopped with SDS sample buffer; 7.5% SDS gel (same samples also on 7.5% native gel); both purified
[2] = molecular target: Porcine pancreas elastase (Sigma-Aldrich) (porcine) (UniProt P00772); assay: SDS-PAGE and Western blot (anti-AAT) of the AAT-elastase complex; supernatants of PBMCs cultured 6 h at 37 °C with 0.5 mg/mL AAT, some with 10 ng/mL LPS and 12 µg/mL spike, then incubated with porcine pancreas elastase at a molar ratio of 2:1 (AAT/elastase) for 30 min at room temperature; stopped with SDS sample buffer; 7.5% SDS gel, blot with polyclonal rabbit anti-human AAT; only the target purified

Amino acid sequences for entries named in this document (tags omitted). Residues count along the entry.
UniProt P00772, residues 27-266: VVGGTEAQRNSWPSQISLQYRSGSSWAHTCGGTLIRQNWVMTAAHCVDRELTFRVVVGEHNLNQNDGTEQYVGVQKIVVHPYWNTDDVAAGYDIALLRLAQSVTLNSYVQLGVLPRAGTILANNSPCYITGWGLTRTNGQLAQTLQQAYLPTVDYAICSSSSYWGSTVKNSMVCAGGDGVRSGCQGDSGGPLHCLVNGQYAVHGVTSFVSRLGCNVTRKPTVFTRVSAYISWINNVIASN
UniProt P01009, residues 25-418: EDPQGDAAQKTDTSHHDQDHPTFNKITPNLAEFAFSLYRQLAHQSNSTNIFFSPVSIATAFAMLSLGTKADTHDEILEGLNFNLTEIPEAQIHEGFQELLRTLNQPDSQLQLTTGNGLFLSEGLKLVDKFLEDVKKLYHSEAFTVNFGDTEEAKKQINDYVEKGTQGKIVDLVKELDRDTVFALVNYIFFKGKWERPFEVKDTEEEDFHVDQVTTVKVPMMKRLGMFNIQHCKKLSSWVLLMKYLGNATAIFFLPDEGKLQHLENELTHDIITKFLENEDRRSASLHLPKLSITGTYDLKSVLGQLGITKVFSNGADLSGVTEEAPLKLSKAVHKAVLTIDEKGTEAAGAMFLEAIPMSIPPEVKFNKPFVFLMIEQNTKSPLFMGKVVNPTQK

binding [1]: binds
binding [2]: binds
Substance: Recombinant α-1 antitrypsin (recAAT) produced in CHO cells (ExcellGene) (from UniProt P01009 25-418)

Reference: article PMC8347018
